The target in experiment [1] is GATA2 (UniProt P23769). Description: co-IP.
Experiment [2] addresses human PIEZO1 (human) (UniProt Q92508). As to the kind of experiment: co-IP.
Experiment [3] has the same target. As to the kind of experiment: native gel or EMSA. In general terms: In EMSA bound probe runs differently from free probe, usually more slowly.

Protein sequences, listed by entry. Tags and fused reporters are not part of them.
UniProt P23769: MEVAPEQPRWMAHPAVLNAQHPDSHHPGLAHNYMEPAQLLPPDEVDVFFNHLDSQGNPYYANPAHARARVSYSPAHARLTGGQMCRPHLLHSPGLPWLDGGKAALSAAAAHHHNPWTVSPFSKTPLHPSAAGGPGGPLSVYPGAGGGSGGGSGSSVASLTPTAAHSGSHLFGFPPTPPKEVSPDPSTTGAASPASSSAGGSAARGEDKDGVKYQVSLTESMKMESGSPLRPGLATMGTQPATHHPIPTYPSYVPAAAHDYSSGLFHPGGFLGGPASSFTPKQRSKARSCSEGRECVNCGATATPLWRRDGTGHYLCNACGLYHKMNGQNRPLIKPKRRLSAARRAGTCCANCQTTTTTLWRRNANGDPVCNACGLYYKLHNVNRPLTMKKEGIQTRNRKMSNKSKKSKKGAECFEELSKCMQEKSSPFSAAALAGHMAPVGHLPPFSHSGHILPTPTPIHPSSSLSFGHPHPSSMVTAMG
UniProt Q92508: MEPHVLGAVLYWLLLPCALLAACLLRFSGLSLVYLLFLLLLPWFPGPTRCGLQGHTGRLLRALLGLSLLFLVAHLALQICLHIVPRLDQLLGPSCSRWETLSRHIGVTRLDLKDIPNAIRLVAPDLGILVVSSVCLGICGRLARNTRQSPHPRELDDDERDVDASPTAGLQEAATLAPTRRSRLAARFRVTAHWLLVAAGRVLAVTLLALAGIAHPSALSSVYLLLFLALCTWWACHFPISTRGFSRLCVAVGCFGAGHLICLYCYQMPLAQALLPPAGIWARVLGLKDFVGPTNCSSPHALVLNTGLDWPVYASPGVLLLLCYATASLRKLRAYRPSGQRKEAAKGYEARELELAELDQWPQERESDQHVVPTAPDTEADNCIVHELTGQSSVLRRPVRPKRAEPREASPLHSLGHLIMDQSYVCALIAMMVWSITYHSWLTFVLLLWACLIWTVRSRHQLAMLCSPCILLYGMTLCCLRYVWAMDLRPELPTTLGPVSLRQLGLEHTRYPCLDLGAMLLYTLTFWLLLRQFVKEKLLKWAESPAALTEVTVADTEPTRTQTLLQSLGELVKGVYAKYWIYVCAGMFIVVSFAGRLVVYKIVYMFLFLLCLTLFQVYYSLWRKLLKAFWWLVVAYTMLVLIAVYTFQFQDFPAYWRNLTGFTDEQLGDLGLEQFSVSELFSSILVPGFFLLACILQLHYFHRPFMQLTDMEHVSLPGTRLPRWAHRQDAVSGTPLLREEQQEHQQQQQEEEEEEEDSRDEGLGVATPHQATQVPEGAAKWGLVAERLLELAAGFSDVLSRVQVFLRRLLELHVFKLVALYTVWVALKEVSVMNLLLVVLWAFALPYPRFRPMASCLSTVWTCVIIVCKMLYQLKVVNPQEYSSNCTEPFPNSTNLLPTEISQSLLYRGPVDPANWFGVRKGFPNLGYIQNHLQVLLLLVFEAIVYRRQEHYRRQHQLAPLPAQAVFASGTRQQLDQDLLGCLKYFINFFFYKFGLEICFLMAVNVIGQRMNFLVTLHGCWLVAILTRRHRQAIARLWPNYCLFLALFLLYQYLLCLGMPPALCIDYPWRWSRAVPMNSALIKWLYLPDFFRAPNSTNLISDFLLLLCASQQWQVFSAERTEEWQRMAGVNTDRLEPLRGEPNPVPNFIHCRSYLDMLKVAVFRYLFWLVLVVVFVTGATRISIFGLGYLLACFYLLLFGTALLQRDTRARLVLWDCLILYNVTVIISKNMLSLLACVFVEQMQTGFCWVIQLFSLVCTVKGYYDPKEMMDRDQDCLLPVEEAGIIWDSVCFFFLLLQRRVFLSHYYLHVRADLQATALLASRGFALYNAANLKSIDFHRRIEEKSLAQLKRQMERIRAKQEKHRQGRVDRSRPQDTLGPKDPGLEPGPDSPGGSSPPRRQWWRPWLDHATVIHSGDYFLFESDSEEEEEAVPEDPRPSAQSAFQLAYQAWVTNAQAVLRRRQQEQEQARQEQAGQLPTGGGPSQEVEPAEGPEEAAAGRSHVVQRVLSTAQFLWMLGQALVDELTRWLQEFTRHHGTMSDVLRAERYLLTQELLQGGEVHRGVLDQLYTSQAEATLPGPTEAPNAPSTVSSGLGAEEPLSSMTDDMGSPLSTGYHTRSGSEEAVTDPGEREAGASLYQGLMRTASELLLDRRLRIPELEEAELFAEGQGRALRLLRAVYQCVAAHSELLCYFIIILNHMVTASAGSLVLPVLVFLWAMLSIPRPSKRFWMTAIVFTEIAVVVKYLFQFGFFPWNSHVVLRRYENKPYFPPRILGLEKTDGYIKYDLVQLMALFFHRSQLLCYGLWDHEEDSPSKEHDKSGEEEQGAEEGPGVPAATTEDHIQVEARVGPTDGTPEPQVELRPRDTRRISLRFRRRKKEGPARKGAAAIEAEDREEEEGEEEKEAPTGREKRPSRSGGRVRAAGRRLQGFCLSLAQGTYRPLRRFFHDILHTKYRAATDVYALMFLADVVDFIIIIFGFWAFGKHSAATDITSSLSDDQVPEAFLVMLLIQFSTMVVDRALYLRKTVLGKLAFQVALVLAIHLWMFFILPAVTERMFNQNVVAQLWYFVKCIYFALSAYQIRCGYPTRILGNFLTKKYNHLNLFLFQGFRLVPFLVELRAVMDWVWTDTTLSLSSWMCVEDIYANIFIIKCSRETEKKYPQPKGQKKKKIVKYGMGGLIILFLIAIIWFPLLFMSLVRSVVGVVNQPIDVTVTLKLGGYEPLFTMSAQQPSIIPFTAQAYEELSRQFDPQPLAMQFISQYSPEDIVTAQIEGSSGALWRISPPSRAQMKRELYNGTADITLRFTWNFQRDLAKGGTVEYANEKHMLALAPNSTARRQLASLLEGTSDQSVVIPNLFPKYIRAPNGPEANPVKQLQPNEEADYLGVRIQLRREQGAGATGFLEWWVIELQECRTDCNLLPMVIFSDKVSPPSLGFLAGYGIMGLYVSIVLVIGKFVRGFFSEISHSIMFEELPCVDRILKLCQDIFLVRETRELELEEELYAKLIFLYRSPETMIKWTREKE

Here are results for three molecules from publication doi:10.1101/2025.10.26.684595.

No constants are given. Whether binding was seen depends on the method and setting. For some assays here: In cells and extracts the contact can be indirect. Some entries that bind do so weakly or less than the wild type. Where a sequence is shown, tags or fusion partners need not be part of it.

B1: MDFI (GATA2 co-immunoprecipitation) (protein, UniProt Q99750 1-246)
chain: MYQVSGQRPSGCDAPYGAPSAAPGPAQTLSLLPGLEVVTGSTHPAEAAPEEGSLEEAATPMPQGNGPGIPQGLDSTDLDVPTEAVTCQPQGNPLGCTPLLPNDSGHPSELGGTRRAGNGALGGPKAHRKLQTHPSLASQGSKKSKSSSKSTTSQIPLQAQEDCCVHCILSCLFCEFLTLCNIVLDCATCGSCSSEDSCLCCCCCGSGECADCDLPCDLDCGILDACCESADCLEICMECCGLCFSS
Regarding B1, the binding entry in experiment [1] is “binds”.

B2: human MDFIC2 with an N-terminal haemagluttinin (HA) tag (protein, UniProt A0A1B0GVS7 1-189)
chain: MSETELEKIKVRTAEHLENDKNNISWLKEDTQLTNAKHADEKPINAIVINSVSDFNITDGPAKENPNEKKLSESSTSLSSLEECQTTFSYLQTDTSVHHRDTDEECASLILACLFCQFWDCLLMLPGTCETVCTKMCCPSRRYHHTSDENHSRNDCSCNCDMDCSLFESCHETSECLELAMEISEICYR
modifications: palmitoylation on at least 2 cysteines (PEG-maleimide mass-tagging assay)
For B2, the binding entry in experiment [1], in experiment [2] and in experiment [3] was “binds” in each case.

B3: MDFIC (GATA2 co-immunoprecipitation) (protein, UniProt Q9P1T7 1-246)
chain: MSGAGEALAPGPVGPQRVAEAGGGQLGSTAQGKCDKDNTEKDITQATNSHFTHGEMQDQSIWGNPSDGELIRTQPQRLPQLQTSAQVPSGEEIGKIKNGHTGLSNGNGIHHGAKHGSADNRKLSAPVSQKMHRKIQSSLSVNSDISKKSKVNAVFSQKTGSSPEDCCVHCILACLFCEFLTLCNIVLGQASCGICTSEACCCCCGDEMGDDCNCPCDMDCGIMDACCESSDCLEICMECCGICFPS
Regarding B3, the binding result in experiment [1] is given as “binds”.
